According to the supplement of paper PMC10849652:
The list shows a part of the results.

Amino acid sequences for entries named in this document (tags omitted). A change or cut given only in a name is not applied to a line headed by its entry.
UniProt Q9BY66, whole entry, looked up: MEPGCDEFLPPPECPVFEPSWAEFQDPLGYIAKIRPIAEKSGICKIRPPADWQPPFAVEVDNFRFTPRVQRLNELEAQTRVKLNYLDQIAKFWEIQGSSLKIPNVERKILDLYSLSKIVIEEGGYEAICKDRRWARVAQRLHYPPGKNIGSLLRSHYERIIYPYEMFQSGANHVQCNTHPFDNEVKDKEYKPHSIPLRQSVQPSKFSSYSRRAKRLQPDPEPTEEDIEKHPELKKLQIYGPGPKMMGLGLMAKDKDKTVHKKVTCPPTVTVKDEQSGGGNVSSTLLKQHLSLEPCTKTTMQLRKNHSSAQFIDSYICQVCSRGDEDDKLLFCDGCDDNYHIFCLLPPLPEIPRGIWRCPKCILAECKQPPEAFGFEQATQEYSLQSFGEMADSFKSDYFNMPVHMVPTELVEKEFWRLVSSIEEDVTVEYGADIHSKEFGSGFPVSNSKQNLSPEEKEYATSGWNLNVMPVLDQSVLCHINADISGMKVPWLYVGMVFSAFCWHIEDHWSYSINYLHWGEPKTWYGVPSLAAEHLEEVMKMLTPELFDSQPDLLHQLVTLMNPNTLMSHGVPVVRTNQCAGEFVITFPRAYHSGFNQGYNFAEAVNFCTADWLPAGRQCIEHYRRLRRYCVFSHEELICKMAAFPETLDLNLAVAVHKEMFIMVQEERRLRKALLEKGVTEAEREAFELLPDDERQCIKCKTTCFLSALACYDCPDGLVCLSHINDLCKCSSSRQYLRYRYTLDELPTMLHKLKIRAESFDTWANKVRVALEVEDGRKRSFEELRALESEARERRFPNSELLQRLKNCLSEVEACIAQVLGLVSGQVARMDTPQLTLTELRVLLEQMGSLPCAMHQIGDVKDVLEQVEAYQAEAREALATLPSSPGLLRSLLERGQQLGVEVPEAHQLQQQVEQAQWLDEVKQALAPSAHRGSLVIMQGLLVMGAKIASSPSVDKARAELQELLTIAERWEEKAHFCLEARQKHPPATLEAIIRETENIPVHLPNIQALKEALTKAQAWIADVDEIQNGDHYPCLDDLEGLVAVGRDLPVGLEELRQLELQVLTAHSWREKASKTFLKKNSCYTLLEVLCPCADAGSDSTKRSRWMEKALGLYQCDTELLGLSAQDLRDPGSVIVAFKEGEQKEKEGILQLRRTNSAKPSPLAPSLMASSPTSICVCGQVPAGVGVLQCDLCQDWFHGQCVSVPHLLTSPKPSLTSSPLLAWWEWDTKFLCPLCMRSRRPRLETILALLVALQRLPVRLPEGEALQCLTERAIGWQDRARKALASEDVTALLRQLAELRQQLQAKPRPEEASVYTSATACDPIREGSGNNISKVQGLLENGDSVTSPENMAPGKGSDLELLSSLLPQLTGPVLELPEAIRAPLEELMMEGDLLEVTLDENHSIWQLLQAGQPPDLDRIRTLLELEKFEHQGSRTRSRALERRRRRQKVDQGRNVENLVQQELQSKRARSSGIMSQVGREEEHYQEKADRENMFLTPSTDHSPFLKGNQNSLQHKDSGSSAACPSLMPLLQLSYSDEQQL
UniProt P17275: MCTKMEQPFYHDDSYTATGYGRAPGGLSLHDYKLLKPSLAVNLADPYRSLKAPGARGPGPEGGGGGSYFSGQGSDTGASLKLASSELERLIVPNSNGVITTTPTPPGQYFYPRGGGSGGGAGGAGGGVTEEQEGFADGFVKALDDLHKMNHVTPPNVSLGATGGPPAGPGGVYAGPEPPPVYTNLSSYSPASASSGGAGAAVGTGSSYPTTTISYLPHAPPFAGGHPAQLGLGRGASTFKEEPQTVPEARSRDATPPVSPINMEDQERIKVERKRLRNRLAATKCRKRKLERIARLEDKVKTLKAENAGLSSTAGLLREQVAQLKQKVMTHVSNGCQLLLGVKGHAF
UniProt Q12840: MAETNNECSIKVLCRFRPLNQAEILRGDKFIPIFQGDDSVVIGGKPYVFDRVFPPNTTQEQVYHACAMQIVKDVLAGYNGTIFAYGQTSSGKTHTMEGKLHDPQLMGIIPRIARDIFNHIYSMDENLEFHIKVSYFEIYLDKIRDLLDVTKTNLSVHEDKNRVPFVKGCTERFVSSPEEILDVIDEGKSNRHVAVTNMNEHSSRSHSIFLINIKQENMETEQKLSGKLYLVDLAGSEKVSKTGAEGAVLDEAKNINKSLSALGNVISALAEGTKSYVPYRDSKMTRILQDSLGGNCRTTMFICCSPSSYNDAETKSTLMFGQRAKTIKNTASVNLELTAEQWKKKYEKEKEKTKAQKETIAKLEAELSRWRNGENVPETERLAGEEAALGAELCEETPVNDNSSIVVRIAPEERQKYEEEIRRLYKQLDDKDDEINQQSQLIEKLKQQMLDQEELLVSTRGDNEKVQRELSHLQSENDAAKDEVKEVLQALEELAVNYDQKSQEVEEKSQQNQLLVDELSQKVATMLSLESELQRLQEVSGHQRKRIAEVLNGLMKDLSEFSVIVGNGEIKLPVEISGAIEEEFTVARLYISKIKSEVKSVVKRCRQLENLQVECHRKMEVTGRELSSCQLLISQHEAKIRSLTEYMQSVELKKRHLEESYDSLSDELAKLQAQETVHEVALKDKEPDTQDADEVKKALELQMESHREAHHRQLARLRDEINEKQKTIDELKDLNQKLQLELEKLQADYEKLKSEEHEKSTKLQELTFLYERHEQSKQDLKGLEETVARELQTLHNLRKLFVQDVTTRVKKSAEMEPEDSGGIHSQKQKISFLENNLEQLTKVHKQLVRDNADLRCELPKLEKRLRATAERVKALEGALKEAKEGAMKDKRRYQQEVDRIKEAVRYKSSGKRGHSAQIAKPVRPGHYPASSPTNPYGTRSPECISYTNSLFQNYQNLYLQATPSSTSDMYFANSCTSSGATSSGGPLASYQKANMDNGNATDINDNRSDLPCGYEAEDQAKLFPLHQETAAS
UniProt Q96A73: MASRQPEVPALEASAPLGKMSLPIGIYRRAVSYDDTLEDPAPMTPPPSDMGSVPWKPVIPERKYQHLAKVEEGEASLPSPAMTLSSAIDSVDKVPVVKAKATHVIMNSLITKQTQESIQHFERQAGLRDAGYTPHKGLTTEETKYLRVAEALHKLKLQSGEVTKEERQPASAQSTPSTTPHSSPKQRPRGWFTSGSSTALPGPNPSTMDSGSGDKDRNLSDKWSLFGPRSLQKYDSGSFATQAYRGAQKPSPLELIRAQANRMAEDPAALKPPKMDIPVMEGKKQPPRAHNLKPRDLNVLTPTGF
UniProt Q96AT1: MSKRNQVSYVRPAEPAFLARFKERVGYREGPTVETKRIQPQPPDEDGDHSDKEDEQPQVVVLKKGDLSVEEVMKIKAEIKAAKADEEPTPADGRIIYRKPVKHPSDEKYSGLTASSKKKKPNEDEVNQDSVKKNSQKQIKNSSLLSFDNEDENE
UniProt Q14974, whole entry, looked up: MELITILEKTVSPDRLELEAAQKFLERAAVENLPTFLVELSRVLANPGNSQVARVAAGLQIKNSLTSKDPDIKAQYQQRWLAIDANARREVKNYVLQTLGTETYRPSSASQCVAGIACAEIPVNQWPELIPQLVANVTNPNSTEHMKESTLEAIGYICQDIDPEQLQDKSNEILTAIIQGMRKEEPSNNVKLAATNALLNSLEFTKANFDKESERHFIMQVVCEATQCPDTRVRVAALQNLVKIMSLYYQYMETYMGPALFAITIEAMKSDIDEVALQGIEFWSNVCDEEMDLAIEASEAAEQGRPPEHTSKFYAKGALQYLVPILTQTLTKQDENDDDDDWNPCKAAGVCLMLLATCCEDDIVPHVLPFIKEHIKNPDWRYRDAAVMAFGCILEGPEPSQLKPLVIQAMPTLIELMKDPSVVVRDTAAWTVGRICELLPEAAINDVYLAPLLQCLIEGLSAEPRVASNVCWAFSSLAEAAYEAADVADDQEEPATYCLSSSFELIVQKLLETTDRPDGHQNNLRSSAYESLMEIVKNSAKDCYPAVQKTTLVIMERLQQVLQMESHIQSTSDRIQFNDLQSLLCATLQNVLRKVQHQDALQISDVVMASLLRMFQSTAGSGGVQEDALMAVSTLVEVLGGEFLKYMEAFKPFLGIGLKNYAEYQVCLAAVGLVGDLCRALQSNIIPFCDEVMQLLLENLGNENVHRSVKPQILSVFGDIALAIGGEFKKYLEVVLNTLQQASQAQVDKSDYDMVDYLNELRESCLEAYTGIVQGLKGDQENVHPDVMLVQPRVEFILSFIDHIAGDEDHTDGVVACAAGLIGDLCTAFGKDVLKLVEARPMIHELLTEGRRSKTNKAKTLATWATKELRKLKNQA
UniProt Q14667: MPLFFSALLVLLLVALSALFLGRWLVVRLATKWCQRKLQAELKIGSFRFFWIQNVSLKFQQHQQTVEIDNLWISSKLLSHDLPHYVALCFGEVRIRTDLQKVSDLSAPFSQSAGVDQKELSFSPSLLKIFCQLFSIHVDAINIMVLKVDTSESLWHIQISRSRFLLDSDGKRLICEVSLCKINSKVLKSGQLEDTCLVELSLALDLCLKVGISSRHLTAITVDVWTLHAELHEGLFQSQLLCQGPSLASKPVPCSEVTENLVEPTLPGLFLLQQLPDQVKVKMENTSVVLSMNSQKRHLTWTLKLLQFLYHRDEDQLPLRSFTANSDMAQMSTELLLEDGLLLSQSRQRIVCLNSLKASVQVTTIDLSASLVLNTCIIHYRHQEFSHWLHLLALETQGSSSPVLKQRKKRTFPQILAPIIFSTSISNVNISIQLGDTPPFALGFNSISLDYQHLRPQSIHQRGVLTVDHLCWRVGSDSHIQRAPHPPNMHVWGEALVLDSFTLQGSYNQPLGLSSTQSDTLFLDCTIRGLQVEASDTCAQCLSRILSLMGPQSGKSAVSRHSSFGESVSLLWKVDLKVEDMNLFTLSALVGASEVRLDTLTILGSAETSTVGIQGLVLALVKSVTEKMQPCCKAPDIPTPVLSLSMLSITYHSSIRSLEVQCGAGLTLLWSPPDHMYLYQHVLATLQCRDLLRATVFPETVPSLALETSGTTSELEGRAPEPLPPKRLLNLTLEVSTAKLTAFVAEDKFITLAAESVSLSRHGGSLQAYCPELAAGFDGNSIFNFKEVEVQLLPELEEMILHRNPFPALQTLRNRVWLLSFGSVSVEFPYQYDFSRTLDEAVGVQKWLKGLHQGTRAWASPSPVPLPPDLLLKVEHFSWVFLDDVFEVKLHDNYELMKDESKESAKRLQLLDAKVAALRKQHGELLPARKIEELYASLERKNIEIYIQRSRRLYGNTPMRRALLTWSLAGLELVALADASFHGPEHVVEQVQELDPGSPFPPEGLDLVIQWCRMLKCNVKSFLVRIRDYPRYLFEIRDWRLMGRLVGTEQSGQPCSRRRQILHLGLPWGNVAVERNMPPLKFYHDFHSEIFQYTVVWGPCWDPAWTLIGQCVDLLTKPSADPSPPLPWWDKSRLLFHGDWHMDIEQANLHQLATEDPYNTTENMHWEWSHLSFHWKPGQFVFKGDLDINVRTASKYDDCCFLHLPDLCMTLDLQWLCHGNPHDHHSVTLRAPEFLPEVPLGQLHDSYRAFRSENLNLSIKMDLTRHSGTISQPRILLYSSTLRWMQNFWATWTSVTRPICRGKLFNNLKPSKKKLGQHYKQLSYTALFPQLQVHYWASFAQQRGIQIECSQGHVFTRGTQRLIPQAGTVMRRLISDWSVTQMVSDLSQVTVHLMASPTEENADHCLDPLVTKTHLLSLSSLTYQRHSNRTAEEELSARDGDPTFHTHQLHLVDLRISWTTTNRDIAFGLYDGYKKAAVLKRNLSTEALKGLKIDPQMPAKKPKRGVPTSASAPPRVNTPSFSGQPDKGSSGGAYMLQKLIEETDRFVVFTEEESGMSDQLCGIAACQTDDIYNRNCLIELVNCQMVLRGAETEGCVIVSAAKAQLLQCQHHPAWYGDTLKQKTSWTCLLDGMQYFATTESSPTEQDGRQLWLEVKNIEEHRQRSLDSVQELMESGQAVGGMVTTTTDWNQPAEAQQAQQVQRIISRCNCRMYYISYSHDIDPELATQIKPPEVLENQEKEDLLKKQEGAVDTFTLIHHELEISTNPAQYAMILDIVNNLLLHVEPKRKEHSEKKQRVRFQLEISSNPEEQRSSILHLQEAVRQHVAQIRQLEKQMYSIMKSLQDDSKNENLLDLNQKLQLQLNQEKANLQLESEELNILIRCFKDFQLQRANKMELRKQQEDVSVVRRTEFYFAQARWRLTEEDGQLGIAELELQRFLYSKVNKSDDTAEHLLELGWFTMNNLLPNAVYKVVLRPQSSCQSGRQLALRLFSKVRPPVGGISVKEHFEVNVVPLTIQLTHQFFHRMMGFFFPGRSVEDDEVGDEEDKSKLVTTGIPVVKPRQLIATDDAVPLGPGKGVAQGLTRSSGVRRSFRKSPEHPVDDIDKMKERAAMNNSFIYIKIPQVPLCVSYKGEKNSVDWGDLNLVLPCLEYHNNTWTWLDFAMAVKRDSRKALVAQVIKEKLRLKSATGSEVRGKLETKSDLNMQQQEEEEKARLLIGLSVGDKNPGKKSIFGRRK

Compound: C1CCN(C1)C(=O)NC2=CC=CC(=C2)NC3=NC=C(C(=N3)NCCC4=CN=CN4)Br
Assay: log2 fold change, soluble protein after heating vs DMSO (PISA); higher = thermal stabilisation; K562 cells, 10 uM, 30 min; active = over 0.2 and 3.5 SD of the protein, either way, in both replicates (recomputed)
In short: (§1)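 K562 cells at 2×10^6 cells/mL were exposed to 10 μM compound for 30 min, then aliquots were heated for 3 min across 48°C-58°C, pooled, and extracted in PBS containing 0.5% NP-40 at 4°C. The supernatant after 21,000xg for 90 min was taken as soluble protein and measured by TMTpro 16plex LC-MS/MS with channel sums equalised. Thermal stability is reported relative to control samples, with values from duplicates. Fold changes are given on a log2 scale.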

log2 fold change, inactive:
KBTBD2 (UniProt Q8IY47) -0.036, KIF3A (UniProt Q9Y496) -0.011, KSR1 (UniProt Q8IVT5) -0.088, KIAA1522 isoform 2 (UniProt Q9P206) -0.026, JPT2 isoform 3 (UniProt Q9H910) 0.044, KIAA0319L (UniProt Q8IZA0) -0.01, KDM5D isoform 3 (UniProt Q9BY66) 0.035, JMJD6 isoform 3 (UniProt Q6NYC1) -0.007, JUNB (UniProt P17275) -0.068, KBTBD4 isoform 2 (UniProt Q9NVX7) 0.1, KIF5A (UniProt Q12840) 0.008, KEL (UniProt P23276) -0.013, KIAA1191 (UniProt Q96A73) 0.064, JUND (UniProt P17535) -0.026, KIF2C (UniProt Q99661) -0.031, KDM5C (UniProt P41229) -0.001, KIAA2013 isoform 2 (UniProt Q8IYS2) 0.039, KATNA1 (UniProt O75449) 0.014

Compound: C1CN(CCC1(CC2=CC=C(C=C2)Cl)N)C3=NC=NC4=C3C=CN4
Assay: as above
In short: as §1

log2 fold change, inactive:
KIAA1143 (UniProt Q96AT1) 0.053, KLC2 (UniProt Q9H0B6) -0.007, KDM8 isoform 3 (UniProt Q8N371) 0.024, KPNA2 (UniProt P52292) -0.092, KMT2D isoform 3 (UniProt O14686) -0.122, KATNB1 (UniProt Q9BVA0) -0.08, KIF13A (UniProt Q9H1H9) 0.072, KHDRBS1 (UniProt Q07666) -0.084, KHSRP (UniProt Q92945) 0.023, KPNB1 (UniProt Q14974) -0.136, KNTC1 (UniProt P50748) -0.004, KIAA0100 (UniProt Q14667) 0.111, KLHL11 (UniProt Q9NVR0) 0.02, JAGN1 (UniProt Q8N5M9) -0.021, KLC1 isoform 6 (UniProt Q07866) -0.018, IVNS1ABP (UniProt Q9Y6Y0) -0.083, KNSTRN (UniProt Q9Y448) -0.108, KIF1B isoform 4 (UniProt O60333) -0.091, KARS1 (UniProt Q15046) -0.042, KDM1A isoform 2 (UniProt O60341) -0.069, KCTD5 (UniProt Q9NXV2) 0.03, KPNA1 (UniProt P52294) -0.07, KBTBD2 (UniProt Q8IY47) 0.086, KIF3A (UniProt Q9Y496) -0.067, KSR1 (UniProt Q8IVT5) 0.058, KIAA1522 isoform 2 (UniProt Q9P206) -0.173, JPT2 isoform 3 (UniProt Q9H910) 0.047, KIAA0319L (UniProt Q8IZA0) 0.042, KDM5D isoform 3 (UniProt Q9BY66) 0.022, JMJD6 isoform 3 (UniProt Q6NYC1) 0.181, JUNB (UniProt P17275) 0.081, KBTBD4 isoform 2 (UniProt Q9NVX7) 0.054, KIF5A (UniProt Q12840) -0.032, KEL (UniProt P23276) -0.001, KIAA1191 (UniProt Q96A73) -0.055, JUND (UniProt P17535) -0.053, KIF2C (UniProt Q99661) -0.103, KDM5C (UniProt P41229) 0.055, KIAA2013 isoform 2 (UniProt Q8IYS2) 0.022, KATNA1 (UniProt O75449) -0.084
